Results deposited as PubChem BioAssay AID1259405 (NCATS, 2018)
Screen: 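Silenced genes that increase secreted GFP made by CHO cells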 (primary screen). Cell system: Chinese hamster CHO-K1 ovary cells with stable secreted eGFP expression. Knock-down reagent: single siRNA against mouse genes, 0.8 pmol siRNA per well (2 µl of 400 nM stock). Time to read-out: 3 days. Detection: 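Percent of the per-plate non-targeting control median for intracellular GFP per well by laser scanning cytometry and for cell viability by ATP luminescence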. Reading the numbers: GFP, % of control: higher = more GFP per well, higher productivity; viability (ATP), % of control: higher = more viable cells (more ATP). Hit rule: 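Called active when intracellular GFP, relative to negative control, is at or above 120%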.
The whole screen tested about 50,000 reagents; below is a part drawn at random. About 4,000 of them (8%) count as active. 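Mouse siRNA library applied to hamster cells; one well for each siRNA.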 The numbers tell different reagents against one gene apart.

What did the screen give for B230206H07Rik (RIKEN cDNA B230206H07 gene) #1?
GFP, % of control: 84.5; viability (ATP), % of control: 84.6; Outcome: inactive

With B230206H07Rik (RIKEN cDNA B230206H07 gene) #2, what was measured?
GFP, % of control: 68.9; viability (ATP), % of control: 70.5; Outcome: inactive

With B230206H07Rik (RIKEN cDNA B230206H07 gene) #3, how do the results read?
GFP, % of control: 94.4; viability (ATP), % of control: 96.2; Outcome: inactive

For Zcwpw1 (zinc finger, CW type with PWWP domain 1) #1, what was measured?
GFP, % of control: 63.7; viability (ATP), % of control: 86.4; Outcome: inactive

How did the screen score Zcwpw1 (zinc finger, CW type with PWWP domain 1) #2?
GFP, % of control: 91.8; viability (ATP), % of control: 88.1; Outcome: inactive

What is on record for Zcwpw1 (zinc finger, CW type with PWWP domain 1) #3?
GFP, % of control: 84.9; viability (ATP), % of control: 89.6; Outcome: inactive

For Jak1 (Janus kinase 1), how do the results read?
GFP, % of control: 39; viability (ATP), % of control: 19.7; Outcome: inactive

How did the screen score Zdhhc12 (zinc finger, DHHC domain containing 12) #1?
GFP, % of control: 71; viability (ATP), % of control: 53.6; Outcome: inactive

For Zdhhc12 (zinc finger, DHHC domain containing 12) #2, how do the results read?
GFP, % of control: 118; viability (ATP), % of control: 55.7; Outcome: inactive

For Zdhhc12 (zinc finger, DHHC domain containing 12) #3, how do the results read?
GFP, % of control: 97.7; viability (ATP), % of control: 103; Outcome: inactive

Which result is listed for Zeb1 (zinc finger E-box binding homeobox 1) #1?
GFP, % of control: 84.1; viability (ATP), % of control: 102; Outcome: inactive

What did the screen give for Zeb1 (zinc finger E-box binding homeobox 1) #2?
GFP, % of control: 82.8; viability (ATP), % of control: 61.2; Outcome: inactive

What is on record for Zeb1 (zinc finger E-box binding homeobox 1) #3?
GFP, % of control: 126; viability (ATP), % of control: 130; Outcome: active

Which result is listed for Hoxa4 (homeobox A4) #1?
GFP, % of control: 108; viability (ATP), % of control: 87.4; Outcome: inactive

How did the screen score Hoxa4 (homeobox A4) #2?
GFP, % of control: 69.3; viability (ATP), % of control: 76.5; Outcome: inactive

What is on record for Hsfy2 (heat shock transcription factor, Y-linked 2) #1?
GFP, % of control: 97; viability (ATP), % of control: 52.4; Outcome: inactive

For Hsfy2 (heat shock transcription factor, Y-linked 2) #2, what does the deposit list?
GFP, % of control: 56.8; viability (ATP), % of control: 78.5; Outcome: inactive

With Hsfy2 (heat shock transcription factor, Y-linked 2) #3, what does the deposit list?
GFP, % of control: 70; viability (ATP), % of control: 65.3; Outcome: inactive

What did the screen give for Ska1 (spindle and kinetochore associated complex subunit 1) #1?
GFP, % of control: 40.8; viability (ATP), % of control: 57.3; Outcome: inactive

How did the screen score Ska1 (spindle and kinetochore associated complex subunit 1) #2?
GFP, % of control: 44.7; viability (ATP), % of control: 61.5; Outcome: inactive

With Ska1 (spindle and kinetochore associated complex subunit 1) #3, what does the deposit list?
GFP, % of control: 68.6; viability (ATP), % of control: 53; Outcome: inactive

What did the screen give for Pcdhac2 (protocadherin alpha subfamily C, 2) #1?
GFP, % of control: 59.9; viability (ATP), % of control: 63.3; Outcome: inactive

With Pcdhac2 (protocadherin alpha subfamily C, 2) #2, what does the deposit list?
GFP, % of control: 54.2; viability (ATP), % of control: 66.5; Outcome: inactive

What is on record for Or14c44 (olfactory receptor family 14 subfamily C member 44) #1?
GFP, % of control: 26.6; viability (ATP), % of control: 13.2; Outcome: inactive

For Or14c44 (olfactory receptor family 14 subfamily C member 44) #2, how do the results read?
GFP, % of control: 66.4; viability (ATP), % of control: 68.1; Outcome: inactive

With Or14c44 (olfactory receptor family 14 subfamily C member 44) #3, what was measured?
GFP, % of control: 129; viability (ATP), % of control: 112; Outcome: active

For Oxld1 (oxidoreductase like domain containing 1) #1, what was measured?
GFP, % of control: 91.9; viability (ATP), % of control: 86.7; Outcome: inactive

With Oxld1 (oxidoreductase like domain containing 1) #2, what does the deposit list?
GFP, % of control: 115; viability (ATP), % of control: 74.4; Outcome: inactive

How did the screen score Oxld1 (oxidoreductase like domain containing 1) #3?
GFP, % of control: 48.2; viability (ATP), % of control: 64.1; Outcome: inactive

What did the screen give for Stk35 (serine/threonine kinase 35) #1?
GFP, % of control: 60.7; viability (ATP), % of control: 56.6; Outcome: inactive

How did the screen score Stk35 (serine/threonine kinase 35) #2?
GFP, % of control: 63.4; viability (ATP), % of control: 57.8; Outcome: inactive

With Stk35 (serine/threonine kinase 35) #3, what was measured?
GFP, % of control: 94.9; viability (ATP), % of control: 75.8; Outcome: inactive

Which result is listed for Per2 (period circadian clock 2) #1?
GFP, % of control: 41.2; viability (ATP), % of control: 40.4; Outcome: inactive

With Per2 (period circadian clock 2) #2, how do the results read?
GFP, % of control: 55.9; viability (ATP), % of control: 77.6; Outcome: inactive

Which result is listed for Per2 (period circadian clock 2) #3?
GFP, % of control: 79.9; viability (ATP), % of control: 93.3; Outcome: inactive

What did the screen give for Tac1 (tachykinin 1) #1?
GFP, % of control: 67.4; viability (ATP), % of control: 76.4; Outcome: inactive

For Tac1 (tachykinin 1) #2, what does the deposit list?
GFP, % of control: 74.3; viability (ATP), % of control: 68.1; Outcome: inactive

What did the screen give for Tac1 (tachykinin 1) #3?
GFP, % of control: 84.4; viability (ATP), % of control: 119; Outcome: inactive

How did the screen score Vmn1r228 (vomeronasal 1 receptor 228) #1?
GFP, % of control: 81.3; viability (ATP), % of control: 91.2; Outcome: inactive

With Vmn1r228 (vomeronasal 1 receptor 228) #2, what does the deposit list?
GFP, % of control: 64; viability (ATP), % of control: 63.4; Outcome: inactive

How did the screen score Vmn1r228 (vomeronasal 1 receptor 228) #3?
GFP, % of control: 54.7; viability (ATP), % of control: 63.9; Outcome: inactive

Entries listed so far whose target name begins with Z or z:
Zcwpw1 (zinc finger, CW type with PWWP domain 1) #1: GFP, % of control = 63.7; viability (ATP), % of control = 86.4; Outcome = inactive
Zcwpw1 (zinc finger, CW type with PWWP domain 1) #2: GFP, % of control = 91.8; viability (ATP), % of control = 88.1; Outcome = inactive
Zcwpw1 (zinc finger, CW type with PWWP domain 1) #3: GFP, % of control = 84.9; viability (ATP), % of control = 89.6; Outcome = inactive
Zdhhc12 (zinc finger, DHHC domain containing 12) #1: GFP, % of control = 71; viability (ATP), % of control = 53.6; Outcome = inactive
Zdhhc12 (zinc finger, DHHC domain containing 12) #2: GFP, % of control = 118; viability (ATP), % of control = 55.7; Outcome = inactive
Zdhhc12 (zinc finger, DHHC domain containing 12) #3: GFP, % of control = 97.7; viability (ATP), % of control = 103; Outcome = inactive
Zeb1 (zinc finger E-box binding homeobox 1) #1: GFP, % of control = 84.1; viability (ATP), % of control = 102; Outcome = inactive
Zeb1 (zinc finger E-box binding homeobox 1) #2: GFP, % of control = 82.8; viability (ATP), % of control = 61.2; Outcome = inactive
Zeb1 (zinc finger E-box binding homeobox 1) #3: GFP, % of control = 126; viability (ATP), % of control = 130; Outcome = active
